Measured values: patent US20150045248
Results from cells or extracts need not show a direct contact. For some of these results: A negative result means that nothing was seen under these conditions. For some of these results: A weaker result is weaker than the reference pair of the same experiment. For some of these results: The exact form of at least one protein or probe is not confirmed.

By UniProt entry, the sequences of proteins in these tests, tags left out. Where a name states a change or a piece, a line headed by the entry shows the natural chain unless it says otherwise. Residues count along the entry.
UniProt O75746, 2-678: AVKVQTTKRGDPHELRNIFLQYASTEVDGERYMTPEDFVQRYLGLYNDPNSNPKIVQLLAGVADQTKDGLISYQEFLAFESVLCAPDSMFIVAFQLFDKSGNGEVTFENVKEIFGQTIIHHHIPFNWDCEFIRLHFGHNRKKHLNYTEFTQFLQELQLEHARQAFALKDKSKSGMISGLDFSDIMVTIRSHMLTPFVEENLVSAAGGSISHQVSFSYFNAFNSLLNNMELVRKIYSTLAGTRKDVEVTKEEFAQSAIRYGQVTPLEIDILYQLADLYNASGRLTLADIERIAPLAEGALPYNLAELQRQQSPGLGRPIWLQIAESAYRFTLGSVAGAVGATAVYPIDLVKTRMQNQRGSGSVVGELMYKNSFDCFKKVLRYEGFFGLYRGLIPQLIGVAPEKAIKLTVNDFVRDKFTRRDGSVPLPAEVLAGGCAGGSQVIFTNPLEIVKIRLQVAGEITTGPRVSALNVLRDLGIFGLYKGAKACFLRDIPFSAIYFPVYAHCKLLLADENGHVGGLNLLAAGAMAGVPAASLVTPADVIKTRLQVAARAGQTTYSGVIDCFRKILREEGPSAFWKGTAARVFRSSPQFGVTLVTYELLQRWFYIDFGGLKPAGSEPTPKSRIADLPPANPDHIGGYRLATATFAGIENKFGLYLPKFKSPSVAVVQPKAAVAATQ
UniProt Q96DH6: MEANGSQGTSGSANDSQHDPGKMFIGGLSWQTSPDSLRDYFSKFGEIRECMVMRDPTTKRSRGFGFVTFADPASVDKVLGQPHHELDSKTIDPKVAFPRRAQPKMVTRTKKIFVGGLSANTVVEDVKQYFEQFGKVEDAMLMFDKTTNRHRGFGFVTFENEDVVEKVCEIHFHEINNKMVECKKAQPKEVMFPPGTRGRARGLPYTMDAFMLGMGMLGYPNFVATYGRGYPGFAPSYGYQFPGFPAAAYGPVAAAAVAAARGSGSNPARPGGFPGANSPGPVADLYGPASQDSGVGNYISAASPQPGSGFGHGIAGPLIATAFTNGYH
UniProt Q9UJS0, 2-675: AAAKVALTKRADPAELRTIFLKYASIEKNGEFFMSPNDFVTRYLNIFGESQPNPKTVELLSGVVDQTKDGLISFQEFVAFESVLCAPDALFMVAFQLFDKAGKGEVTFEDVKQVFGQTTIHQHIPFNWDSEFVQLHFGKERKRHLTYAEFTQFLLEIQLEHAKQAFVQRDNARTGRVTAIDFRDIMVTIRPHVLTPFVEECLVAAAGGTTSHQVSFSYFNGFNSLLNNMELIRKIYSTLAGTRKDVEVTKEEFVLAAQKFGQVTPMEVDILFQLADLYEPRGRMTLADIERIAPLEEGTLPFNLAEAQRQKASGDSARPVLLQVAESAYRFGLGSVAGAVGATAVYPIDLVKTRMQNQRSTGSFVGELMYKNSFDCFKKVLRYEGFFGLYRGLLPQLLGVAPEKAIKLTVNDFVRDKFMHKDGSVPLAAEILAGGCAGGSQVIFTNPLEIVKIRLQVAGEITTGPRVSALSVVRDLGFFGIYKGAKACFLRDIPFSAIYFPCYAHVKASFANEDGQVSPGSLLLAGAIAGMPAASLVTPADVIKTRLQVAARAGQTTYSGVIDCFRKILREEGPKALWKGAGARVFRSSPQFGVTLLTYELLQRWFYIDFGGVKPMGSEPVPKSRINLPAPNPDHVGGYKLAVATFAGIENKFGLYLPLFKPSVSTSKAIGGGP

Key:
[1] = molecular target: TDP-43 (wild type) (Homo sapiens) (UniProt Q13148); experiment: pull-down; details: Flag-IP, LC-MS/MS and Northern, protein in a lysate after overexpression, protein details: DAP tag (6xHis-biotinylated-Flag), N-terminal
[2] = molecular target: TDP-43 (wild type) (Homo sapiens) (UniProt Q13148); experiment: competition with a labelled probe; details: protein in a lysate after overexpression, protein details: DAP tag (6xHis-biotinylated-Flag), N-terminal, single-stranded DNA
[3] = molecular target: TDP-43 dRRM2 deletion of RRM2 domain (Homo sapiens) (UniProt Q13148); experiment: pull-down; details: Flag-IP Northern; protein in a lysate after overexpression; protein details: DAP tag (6xHis-biotinylated-Flag)
[4] = molecular target: Aralar 1 (SLC25A12) (UniProt O75746); experiment: pull-down; details: did not co-immunoprecipitate; protein in an extract
[5] = molecular target: TDP-43 dGR deletion of GR domain (Homo sapiens) (UniProt Q13148); experiment: pull-down; details: Flag-IP Northern; protein in a lysate after overexpression; protein details: DAP tag (6xHis-biotinylated-Flag)
[6] = molecular target: Musashi 2 (UniProt Q96DH6); experiment: pull-down; details: co-IP Northern; protein in a lysate after overexpression; protein details: DAP tag
[7] = molecular target: TDP-43 dRRM1 deletion of RRM1 domain (Homo sapiens) (UniProt Q13148); experiment: pull-down; details: Flag-IP Northern; protein in a lysate after overexpression; protein details: DAP tag (6xHis-biotinylated-Flag)
[8] = molecular target: TDP-43 d315 (Homo sapiens) (UniProt Q13148); experiment: pull-down; details: Flag-IP Northern; protein in a lysate after overexpression; protein details: DAP tag (6xHis-biotinylated-Flag)
[9] = molecular target: Aralar 2 (citrin) (UniProt Q9UJS0); experiment: pull-down; details: did not co-immunoprecipitate; protein in an extract
[10] = 200 nM, some inhibition of mt-tRNA binding, variant of mt-tRNAAsn

CAGAGAAUAGUUUAAAUUAGAAUCUUAGCUUUGGGUGCUAAUGGUGGAGUUAAAGACUUUUUCUCUGACCA [mt-tRNAPro]
binding result [1]: binds

GCTTAGCTGTTAACTAAGTGTTT [Anticodon oligonucleotide]
binding result ([2]; 200 nM, little inhibitory effect, variant of mt-tRNAAsn): no binding

GTGGGTTTAAGTCCCATTGGTCTAG [T-loop oligonucleotide]
binding result [2, 10]: binds more weakly

GUUCUUGUAGUUGAAAUACAACGAUGGUUUUUCAUAUCAUUGGUCGUGGUUGUAGUCCGUGCGAGAAUACCA [mt-tRNAGlu]
binding result [1]: binds

TAGATTGAAGCCAGTTGATTAGGGT [D-loop oligonucleotide]
binding result [2, 10]: binds more weakly

TCTCTCTCTCTCTCTCTCTCTCTC [(TC)12]
binding result ([2]; 200 nM, no inhibition of mt-tRNA binding): no binding

TGTGTGTGTGTGTGTGTGTGTGTG [(TG)12]
binding result ([2]; strongest inhibition of mt-tRNA binding at 200 nM in cell extract, concentration-dependent over 2, 20, 200 nM): binds

TTGTTGTTGTTGTTGTTGTTGTTG [TT(GTT)7G]
binding result ([2]; 200 nM inhibits mt-tRNA binding, less than (TG)12): binds

UAGAUUGAAGCCAGUUGAUUAGGGUGCUUAGCUGUUAACUAAGUGUUUGUGGGUUUAAGUCCCAUUGGUCUAGCCA [mt-tRNAAsn]
binding result [3]: binds | binding result [4]: no binding | binding result [5]: binds | binding result [6]: binds | binding result [7]: no binding | binding result ([1]; urea PAGE, 50 mM Tris pH 7.4, 150 mM NaCl, 4 C): binds | binding result [8]: binds | binding result [9]: no binding

UAGGAUGGGGUGUGAUAGGUGGCACGGAGAAUUUUGGAUUCUCAGGGAUGGGUUCGAUUCUCAUAGUCCUAGCCA [mt-tRNAGln]
binding result [3]: binds | binding result [5]: binds | binding result [6]: binds | binding result [7]: no binding | binding result [1]: binds | binding result [8]: binds
